From article PMC8266847

By UniProt entry, the sequences of proteins in these tests, tags left out. Where a name states a change or a piece, a line headed by the entry shows the natural chain unless it says otherwise. Residues count along the entry.
UniProt P03165: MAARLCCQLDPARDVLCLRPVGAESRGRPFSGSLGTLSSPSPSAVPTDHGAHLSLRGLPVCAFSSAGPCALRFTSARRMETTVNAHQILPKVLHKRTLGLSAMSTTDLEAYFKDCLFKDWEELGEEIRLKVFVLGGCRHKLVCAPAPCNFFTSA
UniProt P10809, residues 27-573: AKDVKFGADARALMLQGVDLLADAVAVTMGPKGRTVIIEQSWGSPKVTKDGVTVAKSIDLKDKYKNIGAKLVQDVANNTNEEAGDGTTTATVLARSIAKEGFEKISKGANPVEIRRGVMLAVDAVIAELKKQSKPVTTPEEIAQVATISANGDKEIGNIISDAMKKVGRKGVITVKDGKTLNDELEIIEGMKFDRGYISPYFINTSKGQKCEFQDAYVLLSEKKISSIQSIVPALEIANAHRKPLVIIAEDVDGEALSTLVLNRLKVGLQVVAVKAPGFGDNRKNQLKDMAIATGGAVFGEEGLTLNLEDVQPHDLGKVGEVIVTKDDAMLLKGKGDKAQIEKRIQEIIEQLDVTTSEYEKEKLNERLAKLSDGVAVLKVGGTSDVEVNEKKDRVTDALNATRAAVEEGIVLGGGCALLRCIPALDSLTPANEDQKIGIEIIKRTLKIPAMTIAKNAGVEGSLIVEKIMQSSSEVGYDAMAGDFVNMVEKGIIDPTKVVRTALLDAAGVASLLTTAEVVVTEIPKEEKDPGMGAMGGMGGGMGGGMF
UniProt Q13526: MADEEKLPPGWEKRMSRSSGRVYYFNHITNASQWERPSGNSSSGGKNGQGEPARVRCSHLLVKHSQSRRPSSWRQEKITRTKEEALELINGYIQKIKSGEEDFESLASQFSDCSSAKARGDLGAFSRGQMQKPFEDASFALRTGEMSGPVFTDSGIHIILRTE
UniProt Q16531: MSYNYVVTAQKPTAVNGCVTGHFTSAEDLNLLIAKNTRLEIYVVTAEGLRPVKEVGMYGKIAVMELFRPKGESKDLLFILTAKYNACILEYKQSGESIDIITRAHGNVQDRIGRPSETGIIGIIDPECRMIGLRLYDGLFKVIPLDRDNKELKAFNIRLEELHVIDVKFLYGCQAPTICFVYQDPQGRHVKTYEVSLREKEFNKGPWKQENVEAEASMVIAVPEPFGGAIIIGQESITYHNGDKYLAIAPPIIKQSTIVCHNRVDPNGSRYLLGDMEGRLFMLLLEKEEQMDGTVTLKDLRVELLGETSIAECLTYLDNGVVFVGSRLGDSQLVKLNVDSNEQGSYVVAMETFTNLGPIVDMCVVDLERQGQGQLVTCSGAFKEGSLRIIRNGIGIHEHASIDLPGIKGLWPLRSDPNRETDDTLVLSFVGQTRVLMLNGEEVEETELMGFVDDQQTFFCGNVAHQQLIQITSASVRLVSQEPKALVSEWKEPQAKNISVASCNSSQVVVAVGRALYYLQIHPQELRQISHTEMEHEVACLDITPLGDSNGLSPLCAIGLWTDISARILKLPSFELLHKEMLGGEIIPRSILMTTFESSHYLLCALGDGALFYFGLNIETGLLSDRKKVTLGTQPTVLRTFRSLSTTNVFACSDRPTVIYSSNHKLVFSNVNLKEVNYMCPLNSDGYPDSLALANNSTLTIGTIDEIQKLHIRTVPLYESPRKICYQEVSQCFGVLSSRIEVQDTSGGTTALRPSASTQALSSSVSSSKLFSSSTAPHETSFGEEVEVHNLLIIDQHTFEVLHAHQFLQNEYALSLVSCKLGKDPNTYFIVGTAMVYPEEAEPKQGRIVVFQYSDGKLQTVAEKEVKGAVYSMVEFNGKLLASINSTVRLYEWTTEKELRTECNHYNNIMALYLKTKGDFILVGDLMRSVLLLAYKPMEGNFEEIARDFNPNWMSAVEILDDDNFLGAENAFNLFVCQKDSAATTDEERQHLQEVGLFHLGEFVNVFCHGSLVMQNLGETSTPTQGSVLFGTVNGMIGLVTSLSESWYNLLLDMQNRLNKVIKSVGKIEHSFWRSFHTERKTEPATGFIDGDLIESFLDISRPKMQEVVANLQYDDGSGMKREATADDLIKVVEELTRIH

B1: peroxiredoxin-4 (PRDX4), endogenous in HepG2 cells (protein, UniProt Q13162 38-271)
chain: WETEERPRTREEECHFYAGGQVYPGEASRVSVADHSLHLSKAKISKPAPYWEGTAVIDGEFKELKLTDYRGKYLVFFFYPLDFTFVCPTEIIAFGDRLEEFRSINTEVVACSVDSQFTHLAWINTPRRQGGLGPIRIPLLSDLTHQISKDYGVYLEDSGHTLRGLFIIDDKGILRQITLNDLPVGRSVDETLRLVQAFQYTDKHGEVCPAGWKPGSETIIPDPAGKLKYFDKLN

Each molecule was assayed against GST-HBx-D5 (truncated HBx containing N-terminal amino acids 1-50, fused to GST) (hepatitis B virus) (UniProt P03165) (assay: affinity purification with mass spectrometry; GST-HBx or GST-HBx-D5 on glutathione-Sepharose beads incubated with HepG2 cell lysate overnight at 4 °C, GST as negative control; eluates of three parallel experiments pooled, SDS-PAGE, silver staining, in-gel digestion, MS/MS; only the target purified).
With “mitochondrial 60 kDa heat shock protein (HSPD1), endogenous in HepG2 cells (from UniProt P10809 27-573)” the binding was “no binding”. “Pin1 (peptidyl-prolyl cis-trans isomerase), endogenous in HepG2 cells (from UniProt Q13526 1-163)” was tested, and the binding was “no binding”. For “DNA damage-binding protein 1 (DDB1), endogenous in HepG2 cells (from UniProt Q16531 1-1140)”, the binding was “no binding”. With B1 the binding was “no binding”.

These are yes or no findings as the source states them, for the method shown. Binding seen in cells or lysates may run through a third protein. Here binding means that the protein was enriched with, or labelled near, the bait; the list need not be complete. No binding means not detected with the bait.
